Consider two sequences from publication PMC10115967.

In this data set the test system is PuCRZ1 (Polyporus umbellatus). Kind of data set: EMSA. Conditions: 1 ug protein, 7.5 nM probe; EMSA: 1 ug 6xHis-PuCRZ1, 7.5 nM biotin probe, Beyotime chemiluminescent EMSA kit binding buffer (salt and pH not stated), 30 min, room temperature, 6% native PAGE; recombinant protein; protein details: 6xHis (pET32a(+) vector); label: 5'-biotin on both strands. On the technique in general: In EMSA bound probe runs differently from free probe, usually more slowly.

Construct, isoform or probe ends are uncertain for at least one entry.

Consider “GGTCGGCGCTGGGGTCGGCGCTGGGGTCGGCGCTGG (double strand) [G11-biotin-2 (PuG11 promoter probe)]”, for which the binding result was “binds”. For “CAATGGCGACGTCAATGGCGACGTCAATGGCGACGT (double strand) [G10-biotin-2 (PuG10 promoter probe)]” the value was “binds”.
